Substitutions are numbered along the chain they refer to. The exact form of at least one protein or probe is not confirmed. Where a protein sequence is shown, tags need not be part of it.
Tests used:
Assay in all cases: intrinsic tryptophan fluorescence titration
Conditions in all cases: saturating ATP; recombinant protein; protein details: His (Ni-NTA, pET-14b); folded or branched DNA
[1] = target: T1, ADAAD R592A R812A (Bos taurus (bovine)) (UniProt Q9TTA5)
T1 sequence (looked up, limits assumed): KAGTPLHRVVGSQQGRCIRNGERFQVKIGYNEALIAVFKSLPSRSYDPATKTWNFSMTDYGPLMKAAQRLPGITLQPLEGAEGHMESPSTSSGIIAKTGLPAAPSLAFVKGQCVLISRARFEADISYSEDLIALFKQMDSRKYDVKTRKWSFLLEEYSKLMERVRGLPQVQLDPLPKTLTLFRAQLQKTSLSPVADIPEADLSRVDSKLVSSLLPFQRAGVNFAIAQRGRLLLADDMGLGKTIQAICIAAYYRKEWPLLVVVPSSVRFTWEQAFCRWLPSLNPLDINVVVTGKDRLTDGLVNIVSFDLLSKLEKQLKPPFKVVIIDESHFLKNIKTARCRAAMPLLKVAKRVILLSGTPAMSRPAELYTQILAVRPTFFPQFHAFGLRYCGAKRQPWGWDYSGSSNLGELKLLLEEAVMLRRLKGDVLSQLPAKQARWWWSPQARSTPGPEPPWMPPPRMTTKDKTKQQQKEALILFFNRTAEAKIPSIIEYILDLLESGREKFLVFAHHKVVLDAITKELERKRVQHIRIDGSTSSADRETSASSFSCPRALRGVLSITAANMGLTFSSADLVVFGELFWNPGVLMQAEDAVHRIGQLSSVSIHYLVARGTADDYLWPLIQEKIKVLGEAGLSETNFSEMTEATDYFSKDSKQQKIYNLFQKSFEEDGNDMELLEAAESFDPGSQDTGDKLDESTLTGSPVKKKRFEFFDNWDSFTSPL

[2] = target: T2, ADAAD H329D/D591H H549D,D811H (Bos taurus (bovine)) (UniProt Q9TTA5)
T2 sequence (looked up, limits assumed): T1 sequence (looked up, limits assumed) with H329D, D591H, A592R

[3] = target: T3, ADAAD D591H D811H (Bos taurus (bovine)) (UniProt Q9TTA5)
T3 sequence (looked up, limits assumed): T1 sequence (looked up, limits assumed) with D591H, A592R

[4] = target: T4, ADAAD R595K R815K (Bos taurus (bovine)) (UniProt Q9TTA5)
T4 sequence (looked up, limits assumed): T1 sequence (looked up, limits assumed) with A592R, R595K

Sequence “GCGCAATTGCGCTCGACGATTTTTTAGCGCAATTGCGC [slDNA (stem-loop DNA)]” has a Kd [1] of 6.4 nM, a Kd [2] of 9.9 nM and a Kd [3] of 6.9 nM. For the same sequence, the Kd [4] was 7.9 nM.

Reference: article PMC6019379, “RecA-like domain 2 of DNA-dependent ATPase A domain, a SWI2/SNF2 protein, mediates conformational integrity and ATP hydrolysis” (Bioscience Reports, 2018)
